Here are results for one substance from paper PMC12570880.

The chains behind the UniProt entries cited, without tags or fusion partners.
UniProt Q8TDY4: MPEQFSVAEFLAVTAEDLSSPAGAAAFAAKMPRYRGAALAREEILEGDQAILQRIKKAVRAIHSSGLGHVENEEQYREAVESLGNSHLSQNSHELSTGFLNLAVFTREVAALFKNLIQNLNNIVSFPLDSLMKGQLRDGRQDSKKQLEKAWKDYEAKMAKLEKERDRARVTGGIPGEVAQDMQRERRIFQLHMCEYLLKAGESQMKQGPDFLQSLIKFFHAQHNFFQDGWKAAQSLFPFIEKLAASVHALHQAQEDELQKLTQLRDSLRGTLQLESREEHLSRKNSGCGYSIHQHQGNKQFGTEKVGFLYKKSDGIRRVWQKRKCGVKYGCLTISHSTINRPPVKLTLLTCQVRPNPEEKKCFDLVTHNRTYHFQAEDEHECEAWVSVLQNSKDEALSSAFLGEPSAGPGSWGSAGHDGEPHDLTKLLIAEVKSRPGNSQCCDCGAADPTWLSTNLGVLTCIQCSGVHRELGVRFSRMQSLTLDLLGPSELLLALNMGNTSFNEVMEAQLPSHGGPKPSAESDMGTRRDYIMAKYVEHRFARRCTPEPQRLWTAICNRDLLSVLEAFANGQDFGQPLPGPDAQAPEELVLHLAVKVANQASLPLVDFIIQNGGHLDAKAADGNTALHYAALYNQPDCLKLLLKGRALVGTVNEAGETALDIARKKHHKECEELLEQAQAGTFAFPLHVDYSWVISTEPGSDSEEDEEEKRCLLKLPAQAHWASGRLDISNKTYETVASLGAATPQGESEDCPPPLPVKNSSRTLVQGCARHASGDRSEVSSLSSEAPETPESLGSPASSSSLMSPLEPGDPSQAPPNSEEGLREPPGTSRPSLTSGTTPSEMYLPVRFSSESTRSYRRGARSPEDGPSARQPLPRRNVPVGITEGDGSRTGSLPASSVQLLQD
UniProt P15311: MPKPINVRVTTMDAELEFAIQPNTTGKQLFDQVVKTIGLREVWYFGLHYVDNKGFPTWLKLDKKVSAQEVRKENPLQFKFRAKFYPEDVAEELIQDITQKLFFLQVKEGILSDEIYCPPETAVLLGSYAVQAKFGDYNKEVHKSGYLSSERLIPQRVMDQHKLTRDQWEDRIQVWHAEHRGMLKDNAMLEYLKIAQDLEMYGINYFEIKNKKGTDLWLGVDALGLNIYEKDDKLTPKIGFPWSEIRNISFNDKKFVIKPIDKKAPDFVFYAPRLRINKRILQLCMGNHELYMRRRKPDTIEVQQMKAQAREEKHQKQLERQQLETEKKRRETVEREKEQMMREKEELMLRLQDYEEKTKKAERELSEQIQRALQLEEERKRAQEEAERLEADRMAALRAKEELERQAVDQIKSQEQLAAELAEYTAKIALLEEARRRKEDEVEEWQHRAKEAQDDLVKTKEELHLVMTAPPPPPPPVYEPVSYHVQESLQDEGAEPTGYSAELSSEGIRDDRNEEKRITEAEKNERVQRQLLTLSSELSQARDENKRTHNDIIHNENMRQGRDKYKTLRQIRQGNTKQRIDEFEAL

These are yes or no findings as the source states them, for the method shown. Binding seen in cells or lysates may run through a third protein. Here binding means that the protein was enriched with, or labelled near, the bait; the list need not be complete.

The target of the experiment is ACAP4 (endogenous, HeLa cells) (human (endogenous in HeLa)) (UniProt Q8TDY4). The experiment in a line: affinity purification with mass spectrometry; anti-ACAP4 antibody covalently coupled to an affinity matrix; HeLa cell extracts; elution with or without 0.1% SDS; SDS-PAGE, CBB staining, in-gel trypsin digestion of the bands.

In the case of “ezrin (endogenous, HeLa cells) (from UniProt P15311 1-586)”, the binding result is “binds”.
